The values that follow come from publication PMC11975131.

The target in the experiment is IBV nsp15 (endoribonuclease, EndoU) (infectious bronchitis virus (IBV), Beaudette strain). Nature of the experiment: affinity purification with mass spectrometry; whole-cell lysates of H1299 cells infected with wild-type IBV (MOI 1; 18 h in the methods, 24 h in the legend) immunoprecipitated with 5 ug mouse anti-IBV nsp15 monoclonal antibody pre-bound to protein A + G beads; mouse IgG as control; five washes; LC-MS.

No constants are given. Whether binding was seen depends on the method and setting. In cells and extracts the contact can be indirect. A yes stands for co-enrichment or nearness to the bait. Other partners may have been found.

B1: PABPN1 (protein, UniProt Q86U42 1-306)
chain: MAAAAAAAAAAGAAGGRGSGPGRRRHLVPGAGGEAGEGAPGGAGDYGNGLESEELEPEELLLEPEPEPEPEEEPPRPRAPPGAPGPGPGSGAPGSQEEEEEPGLVEGDPGDGAIEDPELEAIKARVREMEEEAEKLKELQNEVEKQMNMSPPPGNAGPVIMSIEEKMEADARSIYVGNVDYGATAEELEAHFHGCGSVNRVTILCDKFSGHPKGFAYIEFSDKESVRTSLALDESLFRGRQIKVIPKRTNRPGISTTDRGFPRARYRARTTNYNSSRSRFYSGFNSRPRGRVYRGRARATSWYSPY
For the molecule B1, the binding result is listed as “binds”.
